Results deposited as PubChem BioAssay AID1259327 (Drosophila RNAi Screening Center, 2017)
Test: 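Data from controls in screens of zinc and manganese toxicity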. System: Drosophila S2R+ cells. Reagents: long dsRNA against Drosophila genes. Timing: 5 days (water added on day 4, read one day later). Conditions: water added as vehicle, no metal, one day before read-out. Detection: 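Luciferase ATP signal per well, normalised to plate mean, duplicate average converted to z-score across plates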. Scale: ATP z-score: higher = more total ATP than typical wells; ATP luminescence: higher = more total ATP. Call rule: 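Called active when the ATP z-score exceeds 1.5 or falls below -1.5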. Calls: active = hit: ATP up or down; inactive = no clear ATP change.
Here is an unselected part of about 3,100 reagents. In the full data, 378 (12%) are marked active. 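Hits include both directions; z-score sign shows ATP rise or fall; raw luminescence values are not plate-normalised.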 Entries without a mark were called inactive. Not stated in the record: the amount of reagent.

The first 2 entries, ahead of the listing:
| target | dsRNA | ATP z-score, duplicate mean | ATP luminescence, replicate 1 (RLU) | ATP luminescence, replicate 2 (RLU) |
| --- | --- | --- | --- | --- |
| ppk18 (GeneID 34295) | DRSC02216 | -0.72 | 6.27e5 | 6.72e5 |
| ppk18 (GeneID 34295) | DRSC02217 | -1.13 | 6.24e5 | 5.88e5 |

The listing, from the start:
| target | dsRNA | ATP z-score, duplicate mean | ATP luminescence, replicate 1 (RLU) | ATP luminescence, replicate 2 (RLU) |
| --- | --- | --- | --- | --- |
| ppk18 (GeneID 34295) | DRSC02216 | -0.72 | 6.27e5 | 6.72e5 |
| ppk18 (GeneID 34295) | DRSC02217 | -1.13 | 6.24e5 | 5.88e5 |
| ppk18 (GeneID 34295) | DRSC39853 | 0.595 | 5.01e5 | 5.42e5 |
| CG1806 (GeneID 32163) | DRSC19787 | 0.729 | 7.48e5 | 8.13e5 |
| Mayo (GeneID 43678) | DRSC14300 | -1.25 | 6.11e5 | 7.19e5 |
| ClC-c (GeneID 39759) | DRSC10499 | -0.204 | 7.08e5 | 7.11e5 |
| ClC-c (GeneID 39759) | DRSC39779 | -0.283 | 5.12e5 | 4.03e5 |
| Sur-8 (GeneID 42093) | DRSC15794 | -0.11 | 3.06e5 | 7.19e5 |
| CG1636 (GeneID 31766) | DRSC18111 | -1.13 | 6.13e5 | 5.66e5 |
| Ir68a (GeneID 39269) | DRSC10599 | 0.646 | 1.16e6 | 8.07e5 |
| mdy (GeneID 44887) | DRSC01559 | -0.49 | 7.04e5 | 6.74e5 |
| mdy (GeneID 44887) | DRSC02250 | 0.0807 | 4.88e5 | 4.81e5 |
| CG31259 (GeneID 41010) | DRSC14366 | -0.732 | 2.65e5 | 6.85e5 |
| CG31259 (GeneID 41010) | DRSC39814 | -0.524 | 4.23e5 | 4.63e5 |
| CG3078 (GeneID 31211) | DRSC39707 | 2.57 (active) | 5.90e5 | 6.92e5 |
| CG3078 (GeneID 31211) | DRSC39834 | -0.665 | 3.64e5 | 5.06e5 |
| hrm (GeneID 35499) | DRSC04853 | -0.449 | 5.95e5 | 5.63e5 |
| Or7a (GeneID 31750) | DRSC18691 | 1.2 | 5.97e5 | 7.07e5 |
| CG6836 (GeneID 40070) | DRSC10722 | -1.62 (active) | 5.23e5 | 5.95e5 |
| CG6836 (GeneID 40070) | DRSC26906 | 0.765 | 9.42e5 | 1.07e6 |
| GC2 (GeneID 41449) | DRSC14476 | -0.0284 | 2.62e5 | 8.50e5 |
| GC2 (GeneID 41449) | DRSC27370 | 0.359 | 8.68e5 | 9.33e5 |
| Lgr3 (GeneID 43098) | DRSC15704 | -0.273 | 6.20e5 | 8.12e5 |
| Lgr3 (GeneID 43098) | DRSC15706 | 2.95 (active) | 3.59e5 | 1.27e6 |
| Scgbeta (GeneID 41525) | DRSC15854 | 0.124 | 3.17e5 | 7.45e5 |
| CG4480 (GeneID 34864) | DRSC02750 | -0.502 | 6.73e5 | 6.73e5 |
| Trpm (GeneID 36694) | DRSC06629 | 0.621 | 7.52e5 | 8.44e5 |
| Trpm (GeneID 36694) | DRSC27597 | -0.0122 | 1.08e6 | 1.17e6 |
| Trpm (GeneID 36694) | DRSC29042 | -0.0576 | 8.74e5 | 7.62e5 |
| CG8916 (GeneID 32553) | DRSC20120 | 0.455 | 8.08e5 | 8.29e5 |
| CG8916 (GeneID 32553) | DRSC39685 | -0.245 | 4.46e5 | 4.51e5 |
| mthl10 (GeneID 38057) | DRSC08504 | 0.755 | 6.77e5 | 6.99e5 |
| mthl10 (GeneID 38057) | DRSC08505 | 1.26 | 7.49e5 | 1.02e6 |
| mthl10 (GeneID 38057) | DRSC39158 | -0.018 | 4.93e5 | 6.65e5 |
| emp (GeneID 37999) | DRSC04019 | 0.249 | 7.27e5 | 8.15e5 |
| emp (GeneID 37999) | DRSC04683 | -0.313 | 6.78e5 | 7.17e5 |
| Sec24CD (GeneID 33409) | DRSC00300 | 1.3 | 5.34e5 | 6.09e5 |
| Nha2 (GeneID 42710) | DRSC14689 | -1.01 | 2.72e5 | 6.05e5 |
| Nha2 (GeneID 42710) | DRSC15623 | -1.01 | 6.22e5 | 6.44e5 |
| robo2 (GeneID 44522) | DRSC00377 | -0.116 | 7.07e5 | 6.81e5 |
| robo2 (GeneID 44522) | DRSC00686 | 0.918 | 7.72e5 | 6.33e5 |
| CG5342 (GeneID 41389) | DRSC15776 | 0.517 | 3.31e5 | 7.95e5 |
| AdipoR (GeneID 42656) | DRSC15767 | 0.431 | 7.78e5 | 7.23e5 |
| AdipoR (GeneID 42656) | DRSC39443 | -0.812 | 3.87e5 | 4.11e5 |
| opm (GeneID 32435) | DRSC22135 | 5.47 (active) | 9.39e5 | 1.15e6 |
| opm (GeneID 32435) | DRSC29575 | -0.36 | 8.24e5 | 7.39e5 |
| Ir56c (GeneID 37251) | DRSC06544 | 1.4 | 7.91e5 | 7.02e5 |
| Ir56c (GeneID 37251) | DRSC26227 | 0.667 | 1.04e6 | 8.25e5 |
| Rift (GeneID 43756) | DRSC14330 | -0.17 | 5.57e5 | 8.02e5 |
| phtf (GeneID 35583) | DRSC05023 | 0.462 | 7.51e5 | 8.11e5 |
| phtf (GeneID 35583) | DRSC28441 | 0.39 | 8.92e5 | 8.49e5 |
| wun2 (GeneID 53558) | DRSC07566 | 1.26 | 7.35e5 | 7.32e5 |
| wun2 (GeneID 53558) | DRSC36974 | -0.168 | 5.30e5 | 6.02e5 |
| wun2 (GeneID 53558) | DRSC36975 | 1.33 | 7.14e5 | 6.71e5 |
| Ncc69 (GeneID 39410) | DRSC10412 | -1.07 | 6.01e5 | 6.32e5 |
| Ncc69 (GeneID 39410) | DRSC23572 | 0.46 | 9.14e5 | 8.45e5 |
| Ptp69D (GeneID 39443) | DRSC11258 | -0.457 | 8.10e5 | 8.60e5 |
| Ptp69D (GeneID 39443) | DRSC36691 | 0.23 | 6.33e5 | 5.64e5 |
| Ptp69D (GeneID 39443) | DRSC36692 | -1.19 | 4.96e5 | 4.61e5 |
| btl (GeneID 39564) | DRSC11331 | -0.347 | 8.15e5 | 8.83e5 |
| btl (GeneID 39564) | DRSC36653 | -0.747 | 4.81e5 | 5.52e5 |
| btl (GeneID 39564) | DRSC36654 | -0.511 | 4.78e5 | 5.96e5 |
| dy (GeneID 32130) | DRSC20325 | -0.332 | 8.24e5 | 7.73e5 |
| dy (GeneID 32130) | DRSC25539 | 0.15 | 8.49e5 | 8.89e5 |
| Ae2 (GeneID 39147) | DRSC08997 | 1.01 | 8.03e5 | 8.62e5 |
| Ae2 (GeneID 39147) | DRSC10969 | -0.0625 | 7.13e5 | 7.36e5 |
| Tsp29Fa (GeneID 34211) | DRSC03232 | 1.45 | 8.61e5 | 8.99e5 |
| Tsp29Fa (GeneID 34211) | DRSC28522 | 0.687 | 9.47e5 | 8.67e5 |
